Laboratory results taken from article doi:10.1101/2024.05.31.596839.
Read-outs that look alike come from different tables or passages of the source. Results are given in words; binding and its absence hold for the method and conditions named. For some of these results: Binding calls can cover weak binding; strength is not graded here. For some of these results: Tags and fused reporters may be left off the sequences shown. Values belong to the binder of their own block, whether it stands above or below them.

Legend:
Experiment in all cases: ReLo
[1] = target: SoYb NTD (Drosophila)
[2] = target: BoYb NTD (Drosophila)
[3] = target: Qin (Drosophila)
[4] = target: Tejas (Drosophila)
[5] = target: Tejas (Drosophila); remark: listed apart in the source
[6] = target: Tapas (Drosophila)
[7] = target: Tejas eTudor domain (aa 334-559) (Drosophila)
[8] = target: BoYb CS domain (Drosophila)
[9] = target: Yb C-terminal portion (aa 335-1042) (Drosophila)
[10] = target: Daedalus (Drosophila)

B2: Piwi (protein, UniProt Q9VKM1 1-843)
chain: MADDQGRGRRRPLNEDDSSTSRGSGDGPRVKVFRGSSSGDPRADPRIEASRERRALEEAPRREGGPTERKPWGDQYDYLNTRPAELVSKKGTDGVPVMLQTNFFRLKTKPEWRIVHYHVEFEPSIENPRVRMGVLSNHANLLGSGYLFDGLQLFTTRKFEQEITVLSGKSKLDIEYKISIKFVGFISCAEPRFLQVLNLILRRSMKGLNLELVGRNLFDPRAKIEIREFKMELWPGYETSIRQHEKDILLGTEITHKVMRTETIYDIMRRCSHNPARHQDEVRVNVLDLIVLTDYNNRTYRINDVDFGQTPKSTFSCKGRDISFVEYYLTKYNIRIRDHNQPLLISKNRDKALKTNASELVVLIPELCRVTGLNAEMRSNFQLMRAMSSYTRMNPKQRTDRLRAFNHRLQNTPESVKVLRDWNMELDKNVTEVQGRIIGQQNIVFHNGKVPAGENADWQRHFRDQRMLTTPSDGLDRWAVIAPQRNSHELRTLLDSLYRAASGMGLRIRSPQEFIIYDDRTGTYVRAMDDCVRSDPKLILCLVPNDNAERYSSIKKRGYVDRAVPTQVVTLKTTKNRSLMSIATKIAIQLNCKLGYTPWMIELPLSGLMTIGFDIAKSTRDRKRAYGALIASMDLQQNSTYFSTVTECSAFDVLANTLWPMIAKALRQYQHEHRKLPSRIVFYRDGVSSGSLKQLFEFEVKDIIEKLKTEYARVQLSPPQLAYIVVTRSMNTRFFLNGQNPPPGTIVDDVITLPERYDFYLVSQQVRQGTVSPTSYNVLYSSMGLSPEKMQKLTYKMCHLYYNWSGTTRVPAVCQYAKKLATLVGTNLHSIPQNALEKKFYYL
binding [3]: no binding

B3: Krimper (protein, UniProt A1ZAC4 1-746)
chain: MNLEDISMIMKLFDSNMHKLQGNLRSYQTEMHQIHKELTEKLSHADLLYRSLIPLHDHLVASLSEVNAHVMKLNVQLHINRQSVRLGDYEYYEKSIDNPYSSIRSGLQAIEKPGCAEAICQSSKPAFVECLPSSTSEEVPVVAVQEASSTNQLDAISVVNENLSEERDATPQPLAVSKNMEETMPSNPFHEQLEGSLEEIPVGSKIVVETEKANNPVRSEASAPATSDNQSLLAAKQGTQTIGTGICNKISKSTINMPNNWQLENPTEVTAASIEKVNKLPKSPRNRFLLPPKGGTETTRRDIYNQILKDMAAFPENTIVTAVLASVDVTDNCAYVAKWDESSDRIKKVLQRQLPLQELDQLPDYGDIFAVLDSINNIITRITINSSSAGGGYDAYLIDFGEHIHFDGNETIFKLPDDIKRLPAQAIRCDLINCDIANMHCFVNTYIKIRVHENNNSTLVAEPVIDRLSRPTKTNTTKYPAGITEDDMAMLNEIDESTSDPLKAVLGFRPKDEQRICRHYDPKLNGCFKGNNCRFAHEPFAPNGATKDVELARALPETIFDTTVHFEIGSIVGILITFINGPTEVYGQFLDGSPPLVWDKKDVPENKRTFKSKPRLLDIVLALYSDGCFYRAQIIDEFPSEYMIFYVDYGNTEFVPLSCLAPCENVDSFKPHRVFSFHIEGIVRSKNLTHQKTIECIEYLKSKLLNTEMNVHLVQRLPDGFLIRFLDDWKYIPEQLLQRNYAQVSQ
binding [4]: binds
binding [5]: binds
binding [6]: no binding
binding [7]: binds

B5: Armitage (protein, UniProt Q6J5K9 1-1188)
chain: MFTYVSKFFTNPDRNREDILESLDRENSFLDQKLMEEKMDQQLKANPNEINGVLSNKIAELTHGLSEMDVSKESSCTARKGVITSLDGDRGVIDKDVLFETKVAEDIILDLHVGCVVEYLTFTTGEAMRVVKVKSILEHSWEDTSQKEIEKAVDNLKNEKPTFFNTETRSVLGLISQRLASSIDVETEYGQLTVELDNIEMNFIPTNGDRVRLECNIQLDDGFVDKQGEILEVTKLFPTRIQEGEKCIVERVYVHMVVLGPETYILKTDLPTGTDLHLGDIVLADLIECQYSKFTRRAIKITPLEKNFGATKLTQQSSMGSSGSGKAVTVTGVNRFITAELWQKESVSLKLTNNLNRTLRLESITVCNDSESQLSVVSPLESKEISSGSEITVTFEIHTQFLGEAIEKYVLNFDLLKVRRVFTVIVCKTKEEVAEAEKRMIAAEALMAPGRNSQERSRFYANQVWCNKVDVIPGQQIVTKRRFVALRLGCFEVPKELRQICLTSERRQEMIKAIEQHYSFLTEPLSIKTYMHRFRLLLHLEEIECFVNFRNYDRDRAHFLRDGEFLTLQIENLAERRPSLVIGDTLRVINPWSDPDSQTTKSYEGIIHKVLFDRILLKFHSSFQEKYNGEDYRLEFYFSRYSFRKQHHAISKIVGVMGEDFLFPSKVTKRENPQLDVYMKDDDMYLYDSKLEWYNQSLNSIQKRAVFNILRGEAENIPYVLFGPPGSGKTMTLIETLLQLVRNLPGARILVGTPSNSSADLVTKRLIDSKALLQGDFIRLVSYNQVEKDLIPPEIMSYCATSDVGAVGSCEDKMMVTESGLKLRCQAKFIGTHRITISTCTTLGNFLQLGFPAGHFTHVLFDEAGQCTEPETMVPIVMLTKKRSQVVLSGDPRQLQSIVTSRIASKMGFSISFLERLLERSPYRKDLQRFPESSGYNPLVLTKLLYNYRALPSIMSIYSRLFYDDELIPVLSEKDSRESRLLSKLRCVFESEKDIPQAHGTFFYGIIGENRQNNDSPSWFNPQEVREVFLMTIALYRANVTADQIGIITPYQKQVKMLRSMFIGTDVVMPKIGSVEEFQGQERDIILISTVRSSEEILRMDARFSLGFVRCSKRLNVAVSRARAMMIIFGNPHLLAVDECWRQLILFCVKNNAYFGCDLPQMVINQKDEVPVCLETFVPSLNTTDDLN
binding [9]: binds
binding [10]: no binding

Other lines, results leading:

binding [1]: binds
binding [2]: binds
B1: Vret-N (domain or fragment, UniProt Q9VCU7 1-178)
chain: MESESSQDDWSAFDPMSREYYDQVGNRYTNESGQKLIMEAPLPPKDEKEQRATRQAKYPYLVVPKSSPYVTEKMLINFFGRALIKEMEFRRLSRVYFVYFENIASLETAQQRVQRYPNLIKCITGRPQKEREITSDPVTSTEPMPTPGPAISATERTPVNHNREVPISTGGQNHPEFF

binding [8]: binds
B4: Vret-C (domain or fragment, UniProt Q9VCU7 178-691)
chain: FRPPLVTKDDYKRGSLLATNDPIQRYLNVKYEFALERHDIYKLKDETRIPQVVLHFRSGRTIPLSTVAVTEEDKTKSLLEDGVSKCVVCQNWTDTFCKLCKMPFCNASCFADVAEQHKQACGKGEILNLDEKVGRKYPKPGLPPSGSKVRITAFEQTNVVYVRSADIQIDIAYYTVLTEVMMLGKDASKLQSTPVCGQIVLYKFEGHMSRAMVLNVDNIKEIYVVFIDFGSVEVTQLERLYECSSYLAGLTCYPVAVKLRGVPRRFVGPNIREVMYELDQSLVFNIKYSSREYDTSKGMQVVVMTEIDINRSLNRLFKTILTPVEPSVSDLGYKEDCLPYIPLHCGKNINVVVMDNTFIQCGFIYCTSIDLAYEVTKMQRDIQEYGEKIAKCATYAPPINELCIAKYEGKWRRGLSVELVGDGYPSILFIDYGNIVPTHVTDIRPYPPQFIFPIMTTQLDLIGVPEKPTDEQIKWLDKNYPIGSVITCSEITFDEETNSYSTRIEKLQEFLSLD
